Taken from: PubChem BioAssay AID1259281 (Sanger Institute, 2017)

Aim: 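Identify essential genes and drug-enhancing knock-downs among kinases and common colorectal mutated genes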 (primary screen)
Cells: human COLO678 colorectal cancer cell line
Reagents: siRNA pool against human genes
Treatment: anchor drugs at fixed doses: BYL719 1 µM, cetuximab 5 µg/ml or trametinib 10 nM; DMSO vehicle for the siRNA-alone arm
Measurement: 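Surviving cells scaled to non-targeting siRNA control as replicate means; robust z-score for knock-down alone; synergy scores weigh knock-down with drug against the predicted combined effect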
Reading the numbers: robust z-score, siRNA alone: higher = more viable cells; strongly negative means essential
Rule for the call: 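Essential (knock-down alone) when the siRNA-alone robust z-score is below -3; otherwise no change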
Meaning of the calls: active = essential (knock-down alone); inactive = no change
The whole screen tested 794 reagents; below is an unselected part. Over the whole deposit, 22 (2.8%) got an active call. 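Calls rest on knock-down alone only; drug synergy scores play no part in them.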 Unmarked entries are inactive. Not all columns of the deposit are shown. No sequences are given here. The record does not give: the amount of reagent, the time to read-out.

PRKCI (GeneID 5584): robust z-score, siRNA alone = 0.473
DYRK3 (GeneID 8444): robust z-score, siRNA alone = 0.473
CDKN1C (GeneID 1028): robust z-score, siRNA alone = 0.473
MAP3K3 (GeneID 4215): robust z-score, siRNA alone = 0.473
BRAF (GeneID 673): robust z-score, siRNA alone = -0.262
POLR2B (GeneID 5431): robust z-score, siRNA alone = 0.473
PIP5KL1 (GeneID 138429): robust z-score, siRNA alone = -1.68
LMTK3 (GeneID 114783): robust z-score, siRNA alone = 0.468
VRK3 (GeneID 51231): robust z-score, siRNA alone = 0.473
TAOK3 (GeneID 51347): robust z-score, siRNA alone = 0.473
ADK (GeneID 132): robust z-score, siRNA alone = 0.473
HUS1 (GeneID 3364): robust z-score, siRNA alone = 0.473
MAP3K14 (GeneID 9020): robust z-score, siRNA alone = 0.473
STK32B (GeneID 55351): robust z-score, siRNA alone = 0.473
EFNA4 (GeneID 1945): robust z-score, siRNA alone = 0.473
NAGK (GeneID 55577): robust z-score, siRNA alone = 0.473
TTBK1 (GeneID 84630): robust z-score, siRNA alone = 0.473
STYK1 (GeneID 55359): robust z-score, siRNA alone = 0.473
FN3K (GeneID 64122): robust z-score, siRNA alone = -2.43
MAPK7 (GeneID 5598): robust z-score, siRNA alone = 0.473
RBM10 (GeneID 8241): robust z-score, siRNA alone = 0.473
AK5 (GeneID 26289): robust z-score, siRNA alone = 0.473
TPD52L3 (GeneID 89882): robust z-score, siRNA alone = 0.473
HASPIN (GeneID 83903): robust z-score, siRNA alone = -1.44
MAST3 (GeneID 23031): robust z-score, siRNA alone = -1.03
PAK6 (GeneID 56924): robust z-score, siRNA alone = 0.473
GCK (GeneID 2645): robust z-score, siRNA alone = 0.473
PFKFB2 (GeneID 5208): robust z-score, siRNA alone = 0.359
CSNK1D (GeneID 1453): robust z-score, siRNA alone = -0.799
LMTK2 (GeneID 22853): robust z-score, siRNA alone = 0.473
ROS1 (GeneID 6098): robust z-score, siRNA alone = 0.115
TSSK6 (GeneID 83983): robust z-score, siRNA alone = 0.473
MAPK15 (GeneID 225689): robust z-score, siRNA alone = 0.473
RAF1 (GeneID 5894): robust z-score, siRNA alone = -2.67
CHD9 (GeneID 80205): robust z-score, siRNA alone = 0.473
TRIB1 (GeneID 10221): robust z-score, siRNA alone = -0.797
